Laboratory results: PubChem BioAssay AID743121 (NCATS, 2013)
Test: 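Genes whose silencing strengthens cell killing by camptothecin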 (primary screen). Cells: MDA-MB-231 cells, a human breast cancer line. Reagent: single siRNA against human genes, 20 nM siRNA (0.8 pmol per well). Time to read-out: 120 h (drug added 48 h after transfection, read 72 h later). Conditions: camptothecin 20 nM (about EC30) for 72 h; vehicle 0.1% DMSO in parallel plates. Measured: 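CellTiter-Glo ATP signal, scaled to control siRNA as percent viability; sensitisation given as log2 of untreated divided by camptothecin-treated viability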. Reading the numbers: log2 vehicle/camptothecin viability: higher = stronger sensitisation to camptothecin; viability with camptothecin and viability without drug: higher = more viable cells. Rule for the call: 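Each gene scored by redundant siRNA activity (RSA) over its individual siRNA ratios; a gene is called active at p < 0.001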.
Here is a random part of about 26,000 deposited reagents. Of all reagents, 167 (0.63%) were called active. 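Calls are per gene from RSA p-values that are not deposited; an individual active-marked siRNA can sensitise only weakly.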 The numbers tell different reagents against one gene apart.

gene | reagent | log2 vehicle/camptothecin viability | viability with camptothecin (% of control) | viability without drug (% of control) | Call
NRTN | 1 | 0.0735 | 52.9 | 55.6 | inactive
NRTN | 2 | -0.493 | 72.3 | 51.4 | inactive
NRTN | 3 | 0.0877 | 53.3 | 56.6 | inactive
NRTN | 4 | -0.454 | 90.1 | 65.8 | inactive
CD1C | 1 | -0.386 | 95.3 | 72.9 | inactive
CD1C | 2 | -0.217 | 121 | 104 | inactive
CD1C | 3 | -0.0442 | 91.8 | 89 | inactive
CD1C | 4 | -0.0556 | 100 | 96.2 | inactive
VASP | 1 | 0.108 | 36.7 | 39.6 | inactive
VASP | 2 | -0.457 | 75.4 | 54.9 | inactive
VASP | 3 | -0.284 | 72.5 | 59.6 | inactive
VASP | 4 | 0.0793 | 101 | 107 | inactive
EFNB1 | 1 | 0.376 | 39.5 | 51.2 | inactive
EFNB1 | 2 | -0.0429 | 90.8 | 88.2 | inactive
EFNB1 | 3 | -0.224 | 106 | 91 | inactive
EFNB1 | 4 | -0.181 | 133 | 117 | inactive
LDLR | 1 | -0.0937 | 67.9 | 63.6 | inactive
LDLR | 2 | -0.53 | 75.5 | 52.3 | inactive
LDLR | 3 | -0.689 | 51.5 | 32 | inactive
LDLR | 4 | -0.307 | 95.5 | 77.2 | inactive
AXL | 1 | -0.0872 | 111 | 104 | inactive
AXL | 2 | -0.195 | 106 | 92.8 | inactive
AXL | 3 | -0.0891 | 78 | 73.3 | inactive
AXL | 4 | -0.231 | 84.1 | 71.7 | inactive
TMPRSS11A | 1 | -0.176 | 112 | 99.2 | inactive
TMPRSS11A | 2 | -0.535 | 67.8 | 46.8 | inactive
TMPRSS11A | 3 | -0.0495 | 99.5 | 96.2 | inactive
ARSB | 1 | -0.144 | 94.1 | 85.1 | inactive
ARSB | 2 | 0.41 | 44 | 58.4 | inactive
ARSB | 3 | -0.0996 | 105 | 98.1 | inactive
ARSB | 4 | 0.0515 | 84.4 | 87.5 | inactive
TLN1 | 1 | -0.494 | 85.6 | 60.8 | inactive
TLN1 | 2 | -0.12 | 83.5 | 76.9 | inactive
TLN1 | 3 | -0.344 | 68.3 | 53.8 | inactive
TLN1 | 4 | 0.449 | 29.6 | 40.4 | inactive
MAG | 1 | -0.0163 | 79.1 | 78.2 | inactive
MAG | 2 | -0.387 | 45.4 | 34.7 | inactive
MAG | 3 | 0.0102 | 103 | 104 | inactive
MAG | 4 | -0.252 | 54.5 | 45.7 | inactive
ING3 | 1 | -0.325 | 116 | 92.9 | inactive
ING3 | 2 | -0.34 | 28.3 | 22.3 | inactive
ING3 | 3 | -0.401 | 51.3 | 38.9 | inactive
ING3 | 4 | -0.427 | 33.3 | 24.7 | inactive
GRK7 | 1 | -0.777 | 33 | 19.3 | inactive
GRK7 | 2 | -0.68 | 68.5 | 42.7 | inactive
GRK7 | 3 | -0.398 | 95 | 72.1 | inactive
GRK7 | 4 | -0.225 | 49.4 | 42.3 | inactive

Quoted from the entries so far (6 entries):
gene | reagent | log2 vehicle/camptothecin viability | viability with camptothecin (% of control) | viability without drug (% of control) | Call
VASP | 1 | 0.108 | 36.7 | 39.6 | inactive
VASP | 2 | -0.457 | 75.4 | 54.9 | inactive
VASP | 3 | -0.284 | 72.5 | 59.6 | inactive
VASP | 4 | 0.0793 | 101 | 107 | inactive
EFNB1 | 1 | 0.376 | 39.5 | 51.2 | inactive
EFNB1 | 2 | -0.0429 | 90.8 | 88.2 | inactive
